Experimental data published in PubChem BioAssay AID1347423 (Functional Genomics Laboratory (NCATS/FGL), 2020).
The campaign covered roughly 52,000 sequences. About 210 (0.4%) were called active.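 Rule for the calls: active = gene whose silencing raises cell survival under the drug, median off-target-corrected z-score across its silencing RNAs 2 or more; inactive = the rest.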 This is one part of the list.

Assay: Resistance to Poly (ADP-Ribose) Polymerase inhibitor: Gene Identification via Genome-wide siRNA Screen
Conditions: mouse BRCA2 R2336H ES cells, olaparib, CellTiter-Glo viability; active compounds read high
In short: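 Genome-wide siRNA screen (3 siRNAs/gene, 20 nM) in mouse ES cells carrying hypomorphic BRCA2 R2336H; olaparib 500 nM added 48 h post-transfection, CellTiter-Glo viability 72 h later. Normalized to plate-median negative control; MAD z-scores, gene median, seed-adjusted.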

Row | Sequence | z-score
1 | GCAACUCUAACUUAUAAGATT against 6030446I19Rik | inactive: 0.225
2 | CGAGAUGUACCUUGAUACUTT against Idh3a | inactive: 0.889
3 | GGCUAAUGAACCACUUUUUTT against LOC217066 | inactive: -0.423
4 | CCCUCUCUUUUAUAGAUGATT against Ap3s2 | inactive: -0.0194
5 | GCAUCUCACUCGUAAAGGUTT against 4732406D01Rik | inactive: -0.389
6 | CCAAGCAUAUGUGGUUGUUTT against 5330440M15Rik | inactive: -0.961
7 | CCCACCACUUUCCGAAAAUTT against Pacrg | inactive: 0.694
8 | CCUGGUGCGUUCAUUCCUGTT against BC005662 | inactive: -0.225
9 | GCUUCCUUAUAGAAUUAGATT against BC033609 | inactive: 1.03
10 | GGAAUUUAUCAAGGUCAUGTT against Ethe1 | inactive: -0.685
11 | CGCAUAUCAAAACUCAGAATT against Mtm1 | inactive: 0.354
12 | GGGUAGCCAAACAAAGACATT against G630055P03Rik | inactive: -1.6
13 | GCAGCUCUCAACAGUUAUATT against 2310066N05Rik | inactive: -0.667
14 | GGUUUUGUGAGGAGGCCAGTT against 1700001E04Rik | inactive: -0.915
15 | GGAAAAAAAGGUAGCUGGATT against D10Bwg0791e | inactive: 2.18
16 | GGACCCUGCUUUCUCUGCUTT against D230039L06Rik | inactive: -1.16
17 | GGGACUUAAGGAGAGAAAUTT against E330028A19Rik | inactive: -0.925
18 | GGAUGAUAUUGAAAGUCUGTT against Me2 | inactive: 0.313
19 | GGUCAAGAAGAACAAGCUGTT against Ucn3 | inactive: -0.569
20 | GGAGCUUCGAAACUACAUGTT against Hspa5bp1 | inactive: 1.14
21 | CCCAGUAUUUUGGAACUAUTT against Napsa | inactive: 1.78
22 | GCCCAAAGGUCAAGGAUAUTT against Rptn | inactive: -1.95
23 | GAAGCUGUCCAAGUACGAGTT against Atoh7 | inactive: -0.677
24 | CCGAAUGAUCAUCACACUGTT against V1rc15 | inactive: 1.96
25 | GCCUGAGACCCUAGAUGCUTT against 2810405K07Rik | inactive: -0.866
26 | GGGUUUGUGUUUAGUGAAUTT against 2310047O13Rik | inactive: -1.29

Rewritten as tab-separated lines: part of the list above
Row	Sequence	z-score
17	GGGACUUAAGGAGAGAAAUTT against E330028A19Rik	inactive: -0.925
19	GGUCAAGAAGAACAAGCUGTT against Ucn3	inactive: -0.569
23	GAAGCUGUCCAAGUACGAGTT against Atoh7	inactive: -0.677

Quoted at random: three entries already listed
Row | Sequence | z-score
23 | GAAGCUGUCCAAGUACGAGTT against Atoh7 | inactive: -0.677
15 | GGAAAAAAAGGUAGCUGGATT against D10Bwg0791e | inactive: 2.18
4 | CCCUCUCUUUUAUAGAUGATT against Ap3s2 | inactive: -0.0194

Continued.

Row | Sequence | z-score
27 | GGGAGUCAAGCUGUUUGCUTT against Col7a1 | inactive: 1.95
28 | GCACUUUACGAGUAUGUAATT against Gna-rs1 | inactive: -0.529
29 | CCUAGUUCCCAAAGAGUGGTT against C130096D04Rik | inactive: -0.584
30 | CCAAGGGAAGAUUCAAAUUTT against D930031B21Rik | inactive: -1.19
31 | CCCACUGGUGUACGUGAUCTT against Bdkrb2 | inactive: 1.92
32 | GGGCCAUGGAAUUGUAAGATT against Mobp | inactive: 0.372
33 | GGAUUUGAAGUCACUCAUUTT against Nubp1 | inactive: -0.732
34 | CCGUUCCAUCAUUAAGACCTT against Stk22b | inactive: 0.159
35 | GGUAUUUGGAGUACCCUUUTT against 6530401L14Rik | inactive: 0.892
36 | GCCAACCUGAAACCAUCUATT against Ptprg | inactive: 0.75
37 | GGGACUUUGAGUCUAACAATT against Pnliprp1 | inactive: -2.28
38 | GCAAUGGAUACAGGACCUUTT against Nupr1 | inactive: -0.692
39 | GCCAACGAAAAAUGACCUCTT against Wnt2 | inactive: -0.201
40 | GGACUCCAAGAAUUUAACATT against Fbxo22 | inactive: -0.397
41 | GGAUGAACUUAGCUACCCATT against Slc25a20 | inactive: 1.89
42 | GGUUCAAAUGUUGCAUAGUTT against Klrc2 | inactive: -0.81
43 | GGUGAAACCUGUCAUUCACTT against Dcdc2 | inactive: 0.442
44 | GGUGAUUGCAUACCUAUGATT against Irs4 | inactive: -1.64
45 | GGAUCAAUGCCCGACUACATT against Phf14 | inactive: -2.73
46 | CUUUAUGGGUCGUGGAGGATT against Hnrpa3 | inactive: 0.154
47 | GCCUGCGUCUUGUUCUGAGTT against Agtr1 | inactive: -1.14
48 | GGACACUCUUCCAAAUACATT against BC033606 | inactive: -0.317
49 | GGAAGUGUUUCACGUGGAATT against Uhrf1 | inactive: 1.73
50 | GGACUAGUCCUAAGAAGAGTT against 1700012H05Rik | inactive: -1.71
51 | GGAUAUACCCUGUUCUAGGTT against 4930572J05Rik | inactive: 0.139
52 | GGCUGGUAUUACAUCUAUCTT against Myohd1 | inactive: 0.58

Row | Sequence | z-score
53 | GAAUGCUCUGAGACUUUUATT against Igsf7 | inactive: 0.732
54 | CCUUUAAUUUCACUGUUACTT against Gabarapl2 | inactive: 0.915
55 | GGCCUGACGCAUUAGCAUUTT against 1700039D13Rik | inactive: 1.45
56 | CCAGACUCAUAAUGUUAAUTT against 9430077A04Rik | inactive: -1.1
57 | CCUGCCUGACACAUUGUGATT against Ntan1 | inactive: -0.354
58 | GGUUGUAAGUGUCUUAAAGTT against Pdcd6ip | inactive: 0.356
59 | CGAUCAAGGAUCUUAAGAUTT against Aox4 | inactive: -0.187
60 | GGCUGCAUGUGCUCUGUUATT against 9830137M10Rik | inactive: -0.327
61 | GGAAACUGGCAGUUUGGGUTT against Slc35a1 | inactive: 1.23
62 | GCGUGUGUGCCUCUACUUGTT against 9130210N20Rik | inactive: 0.21
63 | CGGCCGUAUGAAGAAGAUATT against Rpel1 | inactive: 0.677
64 | GGCUAGCCAUCCAAAAAGATT against BC027072 | inactive: -0.561
65 | GGUGGUAAUUGGUGUGGCATT against C80638 | inactive: 1.39
66 | GCCGUUUGUACCUUGUCAGTT against 4933430I17Rik | inactive: -0.347
67 | CCAAUAACAGGAUUGAGAATT against Tnfrsf8 | inactive: -0.969
68 | GCUCAUUAACGAGAAAGUGTT against 2610528J18Rik | inactive: 1.14
69 | GGGAAAAAGAAAAGGAAAATT against Dhx15 | inactive: -0.426
70 | GGAGAUAAAGCUGACACUGTT against 5830416A07Rik | inactive: 1.17
71 | GGAGAACUUCCUAUACUAUTT against Apobec2 | inactive: 0.216
72 | CCCACCUAUGGGCUAUUAUTT against 5730403B10Rik | inactive: -3.2
73 | GCCAUGACCGUUCGUGAGUTT against Jmjd2a | inactive: 0.149
74 | GGAUACUCACUGCACAAGGTT against Slc9a8 | inactive: -0.568
75 | GCAUCACCAAGACUCGGAATT against B230369L08Rik | inactive: 0.669
76 | GGAGCUGUUUCAGGUAUCUTT against Tcam1 | inactive: -0.211
77 | GGAGCGAAUCUUAAAGAACTT against Gspt1 | inactive: -2.24
78 | GGCACAUACGCUAUGAAGCTT against Mrpplf4 | inactive: -0.535

Row | Sequence | z-score
79 | GGAGGCUCUACUUUUGUAGTT against Olfr611 | inactive: 1.34
80 | GCCUACAACCGCUUCUUGGTT against AA409316 | inactive: 0.355
81 | CCUAUUCAUCAUAACUCAUTT against Tdo2 | inactive: -1.42
82 | GCUUGAUCCGAUUAGCAGATT against BC062185 | inactive: -1.61
83 | GGUCGAAAUGAUCUCCAACTT against Poli | inactive: -2.19
84 | GGAGAACAUGGAGACUAUUTT against Ramp1 | inactive: -0.371
85 | GGGAAGAAAAUCAAACUCATT against Fabp1 | inactive: 0.383
86 | GCAAAUGACUUCCAACAAUTT against 1500040F11Rik | inactive: 0.798
87 | GGAAAGAGUCAUAAUUGAUTT against Adarb2 | inactive: 1.66
88 | GGUACAGUUAUUGAAGUGATT against 5730427N09Rik | inactive: -2.2
89 | GCAUGAUUACCCAUUUCAATT against Tax1bp1 | inactive: 0.267
90 | CGAAGUGGUUACAGAAUCUTT against BC048546 | inactive: -0.173
91 | GGUGUAGAUGGAUUUCAUUTT against Kcmf1 | inactive: -0.703
92 | GGAACUGAACAAGAUUUCUTT against 1700129C05Rik | inactive: -0.721
93 | GGAUUCAAGUUCUCACCGATT against Serpina6 | inactive: -0.266
94 | GGGAGUUACAGCGGUAUGUTT against Krt1-9 | inactive: -2.03
95 | GUUGAUGGAAACCAUGGAATT against D14Ertd668e | inactive: 0.8
96 | GGUAGCACAUUCGGAUAAATT against Vapa | inactive: 0.135
97 | GGUUAUCAGAAAUGUGUCCTT against Chrnb3 | inactive: 0.139
98 | GCUGAUCAACUACUUGAAUTT against Sfrs12 | inactive: 1.42
99 | CUGAGGUCUCUCAUUACCATT against Olfr69 | inactive: -1.79
100 | GGACCCAGUUUUCCCUUGATT against Insig2 | inactive: 0.69
101 | GGUGGUAUCCCUAAAGGUGTT against Pus1 | inactive: -1.22
102 | GUCUUUGUUUUGUUGCUUGTT against Olfr1232 | inactive: -0.0902
